Assay results published in publication doi:10.1101/2020.04.20.051433.
These are yes or no findings as the source states them, for the method shown. Some entries that bind do so weakly or less than the wild type.

By UniProt entry, the sequences of proteins in these tests, tags left out. Where a name states a change or a piece, a line headed by the entry shows the natural chain unless it says otherwise.
UniProt P08926: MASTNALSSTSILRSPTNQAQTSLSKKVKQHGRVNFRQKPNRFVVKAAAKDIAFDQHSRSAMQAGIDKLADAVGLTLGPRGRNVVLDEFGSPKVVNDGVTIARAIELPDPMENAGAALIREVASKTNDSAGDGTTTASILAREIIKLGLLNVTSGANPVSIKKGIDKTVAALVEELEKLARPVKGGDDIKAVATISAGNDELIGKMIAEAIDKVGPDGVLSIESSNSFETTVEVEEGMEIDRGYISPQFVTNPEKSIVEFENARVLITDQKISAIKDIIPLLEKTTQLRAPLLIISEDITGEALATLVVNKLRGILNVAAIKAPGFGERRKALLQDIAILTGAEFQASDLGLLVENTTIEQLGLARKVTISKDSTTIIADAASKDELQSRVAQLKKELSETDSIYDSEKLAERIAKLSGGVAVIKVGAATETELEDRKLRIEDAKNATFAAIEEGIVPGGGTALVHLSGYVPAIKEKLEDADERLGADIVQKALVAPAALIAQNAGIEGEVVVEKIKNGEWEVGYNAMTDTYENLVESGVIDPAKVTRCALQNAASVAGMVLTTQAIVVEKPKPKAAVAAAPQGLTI
UniProt P08927: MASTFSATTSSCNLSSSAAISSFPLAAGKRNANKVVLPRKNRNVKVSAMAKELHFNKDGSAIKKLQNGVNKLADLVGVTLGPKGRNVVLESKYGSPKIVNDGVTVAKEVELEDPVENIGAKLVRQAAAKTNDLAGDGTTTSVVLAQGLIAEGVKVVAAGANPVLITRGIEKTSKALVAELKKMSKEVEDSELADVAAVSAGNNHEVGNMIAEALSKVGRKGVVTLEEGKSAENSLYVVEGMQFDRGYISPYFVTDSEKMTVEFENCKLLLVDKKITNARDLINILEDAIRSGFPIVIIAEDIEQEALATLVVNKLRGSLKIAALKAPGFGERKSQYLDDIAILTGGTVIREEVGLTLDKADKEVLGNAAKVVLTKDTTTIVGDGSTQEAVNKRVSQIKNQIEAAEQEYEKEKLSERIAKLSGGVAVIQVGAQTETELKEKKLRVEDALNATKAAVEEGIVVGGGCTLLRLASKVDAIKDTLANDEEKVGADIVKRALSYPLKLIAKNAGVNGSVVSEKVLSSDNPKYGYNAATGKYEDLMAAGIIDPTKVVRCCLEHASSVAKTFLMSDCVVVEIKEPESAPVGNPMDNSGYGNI
UniProt Q8H0W1: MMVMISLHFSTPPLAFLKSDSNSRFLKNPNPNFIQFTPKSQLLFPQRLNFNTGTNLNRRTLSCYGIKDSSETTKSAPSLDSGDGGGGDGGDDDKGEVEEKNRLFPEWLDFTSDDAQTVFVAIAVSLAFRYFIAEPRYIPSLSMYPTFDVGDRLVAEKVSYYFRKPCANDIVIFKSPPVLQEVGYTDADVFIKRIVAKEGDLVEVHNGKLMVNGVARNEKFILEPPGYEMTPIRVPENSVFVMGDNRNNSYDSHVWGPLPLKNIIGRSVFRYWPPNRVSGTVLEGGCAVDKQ

Experiments:
[1] = biological target: T1, Cpn60 tetradecamer (Cpn60_(14)) reconstituted from P. sativum His-Cpn60 α1 and His-Cpn60 β1 (P. sativum) (UniProt P08926+P08927); test: native gel or EMSA
[2] = biological target: T1, Cpn60 tetradecamer (Cpn60_(14)) reconstituted from P. sativum His-Cpn60 α1 and His-Cpn60 β1 (P. sativum); test: native gel or EMSA; remark: listed apart in the source
[3] = biological target: T1, Cpn60 tetradecamer (Cpn60_(14)) reconstituted from P. sativum His-Cpn60 α1 and His-Cpn60 β1 (P. sativum); test: native gel or EMSA; remark: listed apart in the source
[4] = biological target: T1, Cpn60 tetradecamer (Cpn60_(14)) reconstituted from P. sativum His-Cpn60 α1 and His-Cpn60 β1 (P. sativum); test: Proteinase K protection

binding [1]	binding [2]	binding [3]	binding [4]	Substance
binds	no binding (condition: with 10 mM ATP)	binds	binds	mPlsp1, in vitro translated, radiolabeled (from UniProt Q8H0W1 68-291)
–	–	–	binds	prPlsp1, in vitro translated, radiolabeled (from UniProt Q8H0W1 1-291)
